Measured values taken from publication PMC2965115.
These are yes or no findings as the source states them, for the method shown. Binding seen in cells or lysates may run through a third protein.

Molecular target: LIN-40::GFP (C. elegans)
Assay: co-IP; approximatively 1 mg of protein extract from mixed-stage worms with 1 µg of antibodies per reaction; anti-AFP mAb 3E6 for GFP-tagged proteins; immunoprecipitates analysed by Western blot

B1: MEP-1 (protein, UniProt Q21502 1-870)
chain: MVTADETVLATTTNTTSMSVEPTDPRSAGESSSDSEPDTIEQLKAEQREVMADAANGSEVNGNQENGKEEAASADVEVIEIDDTEESTDPSPDGSDENGDAASTSVPIEEEARKKDEGASEVTVASSEIEQDDDGDVMEITEEPNGKSEDTANGTVTEEVLDEEEPEPSVNGTTEIATEKEPEDSSMPVEQNGKGVKRPVECIELDDDDDDEIQEISTPAPAKKAKIDDVKATSVPEEDNNEQAQKRLLDKLEEYVKEQKDQPSSKSRKVLDTLLGAINAQVQKEPLSVRKLILDKVLVLPNTISFPPSQVCDLLIEHDPEMPLTKVINRMFGEERPKLSDSEKRERAQLKQHNPVPNMTKLLVDIGQDLVQEATYCDIVHAKNLPEVPKNLETYKQVAAQLKPVWETLKRKNEPYKLKMHRCDVCGFQTESKLVMSTHKENLHFTGSKFQCTMCKETDTSEQRMKDHYFETHLVIAKSEEKESKYPCAICEEDFNFKGVREQHYKQCKKDYIRIRNIMMPKQDDHLYINRWLWERPQLDPSILQQQQQAALQQAQQKKQQQLLHQQQAAQAAAAAQLLRKQQLQQQQQQQQARLREQQQAAQFRQVAQLLQQQSAQAQRAQQNQGNVNHNTLIAAMQASLRRGGQQGNSLAVSQLLQKQMAALKSQQGAQQLQAAVNSMRSQNSQKTPTHRSSKLVTTPSHATVGSSSAPTFVCEICDASVQEKEKYLQHLQTTHKQMVGKVLQDMSQGAPLACSRCRDRFWTYEGLERHLVMSHGLVTADLLLKAQKKEDGGRCKTCGKNYAFNMLQHLVADHQVKLCSAEIMYSCDVCAFKCSSYQTLEAHLTSNHPKGDKKTSTPAKKDDCITLDD
For B1, the binding was “no binding”.
